Reference: article PMC3682533
Numbering of substitutions follows the chain as printed. Results are given in words; binding and its absence hold for the method and conditions named. Binding seen in cells or lysates may run through a third protein. Some binding calls cover weakened binding; strength is not graded here. For part of these data: Where a sequence is shown, tags or fusion partners need not be part of it.

The chains behind the UniProt entries cited, without tags or fusion partners. Where a name states a change or a piece, a line headed by the entry shows the natural chain unless it says otherwise.
UniProt O14842: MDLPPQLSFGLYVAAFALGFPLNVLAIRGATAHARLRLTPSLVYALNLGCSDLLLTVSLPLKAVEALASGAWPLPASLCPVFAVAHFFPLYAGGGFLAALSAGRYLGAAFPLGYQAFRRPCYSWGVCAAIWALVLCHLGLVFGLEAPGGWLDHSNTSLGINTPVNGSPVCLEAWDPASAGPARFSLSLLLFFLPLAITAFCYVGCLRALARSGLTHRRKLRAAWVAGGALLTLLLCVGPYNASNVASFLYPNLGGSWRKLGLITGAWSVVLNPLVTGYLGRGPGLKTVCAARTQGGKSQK

Columns and labels:
Test in all cases: FRET or BRET; BRET1 in intact HEK293T cells co-transfected 4:1 with receptor-eYFP and β-arrestin-2 Renilla luciferase; HBSS, coelenterazine h 2.5 μM 10 min at 37 °C, then small-molecule agonist (C3, compound 1, compound 2, TUG-424 or 4-CMTB) 5 min at 37 °C; ratio of luminescence at 535 and 475 nm; recruitment is agonist-stimulated
hFFA2 Q148A-eYFP (human) = biological target: T1, hFFA2 Q148A-eYFP (human) (UniProt O15552)
T1 sequence: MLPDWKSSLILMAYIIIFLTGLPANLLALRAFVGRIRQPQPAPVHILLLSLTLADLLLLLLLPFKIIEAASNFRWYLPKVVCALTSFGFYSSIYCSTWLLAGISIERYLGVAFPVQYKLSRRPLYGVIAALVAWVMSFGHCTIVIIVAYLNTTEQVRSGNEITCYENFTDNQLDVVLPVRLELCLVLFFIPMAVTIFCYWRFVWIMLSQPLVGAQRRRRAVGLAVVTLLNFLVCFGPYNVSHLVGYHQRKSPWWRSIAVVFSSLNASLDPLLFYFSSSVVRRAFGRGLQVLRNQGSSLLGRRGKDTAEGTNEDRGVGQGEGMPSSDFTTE

hFFA2 Q148E-eYFP (human) = biological target: T2, hFFA2 Q148E-eYFP (human) (UniProt O15552)
T2 sequence: T1 sequence with A148E

hFFA2 L173A-eYFP (human) = biological target: T3, hFFA2 L173A-eYFP (human) (UniProt O15552)
T3 sequence: T1 sequence with A148Q, L173A

hFFA1 E145Q-eYFP (human) = hFFA1 E145Q-eYFP (human) (UniProt O14842)
hFFA2 S86G-eYFP (human) = biological target: T4, hFFA2 S86G-eYFP (human) (UniProt O15552)
T4 sequence: T1 sequence with S86G, A148Q

[1] = biological target: T5, human FFA2 free fatty acid receptor with enhanced yellow fluorescent protein fused to its C terminus (hFFA2-eYFP) (human) (UniProt O15552)
T5 sequence: T1 sequence with A148Q

Measured: binding

β-arrestin-2 Renilla luciferase (from UniProt P32121 1-409)
binds: all assays above
